# Cell number after 72 h of treatment

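The test systems are human melanoma cell lines, treated with two drugs together for 72 h and then stained and imaged. The read-out is cell count (nuclei) in % of the DMSO control; lower values mean stronger growth inhibition or killing. Every drug was used at one fixed concentration, the lower of two screened (a fifth of the higher). These are primary screening values without error estimates.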
This is part of the screen, not chosen by result.
An entry leaves out what has no value listed here.
A dash means that no value is listed here.

Drugs:
bexarotene, 2 µM: C=C(c1ccc(C(=O)O)cc1)c1cc2c(cc1C)C(C)(C)CCC2(C)C
OSU-03012, 1 µM: NCC(=O)Nc1ccc(-n2nc(C(F)(F)F)cc2-c2ccc3c(ccc4ccccc43)c2)cc1
CP-690550, 1 µM: C[C@@H]1CCN(C(=O)CC#N)C[C@@H]1N(C)c1ncnc2[nH]ccc12
GW0742, 2 µM: Cc1cc(SCc2sc(-c3ccc(C(F)(F)F)c(F)c3)nc2C)ccc1OCC(=O)O
OSI-906, 0.4 µM: C[C@]1(O)C[C@@H](c2nc(-c3ccc4ccc(-c5ccccc5)nc4c3)c3c(N)nccn32)C1
ENMD-2076, 0.04 µM: Cc1cc(Nc2cc(N3CCN(C)CC3)nc(/C=C/c3ccccc3)n2)n[nH]1
cediranib, 0.4 µM: COc1cc2c(Oc3ccc4[nH]c(C)cc4c3F)ncnc2cc1OCCCN1CCCC1
bortezomib, 0.001 µM: CC(C)C[C@H](NC(=O)[C@H](Cc1ccccc1)NC(=O)c1cnccn1)B(O)O
NVP-TAE684, 0.08 µM: COc1cc(N2CCC(N3CCN(C)CC3)CC2)ccc1Nc1ncc(Cl)c(Nc2ccccc2S(=O)(=O)C(C)C)n1
PD173074, 0.1 µM: CCN(CC)CCCCNc1ncc2cc(-c3cc(OC)cc(OC)c3)c(NC(=O)NC(C)(C)C)nc2n1
GW2580, 1 µM: COc1ccc(COc2ccc(Cc3cnc(N)nc3N)cc2OC)cc1
tozasertib, 0.006 µM: Cc1cc(Nc2cc(N3CCN(C)CC3)nc(Sc3ccc(NC(=O)C4CC4)cc3)n2)n[nH]1
tanespimycin, 0.002 µM: C=CCNC1=C2C[C@@H](C)C[C@H](OC)[C@H](O)[C@@H](C)/C=C(\C)[C@H](OC(N)=O)[C@@H](OC)/C=C\C=C(/C)C(=O)NC(=CC1=O)C2=O
JZL184, 1 µM: O=C(Oc1ccc([N+](=O)[O-])cc1)N1CCC(C(O)(c2ccc3c(c2)OCO3)c2ccc3c(c2)OCO3)CC1
BMS-536924, 0.2 µM: Cc1cc(N2CCOCC2)cc2[nH]c(-c3c(NC[C@@H](O)c4cccc(Cl)c4)cc[nH]c3=O)nc12
PF-04217903, 1 µM: OCCn1cc(-c2cnc3nnn(Cc4ccc5ncccc5c4)c3n2)cn1
CHIR-265, 0.08 µM: Cn1c(Nc2ccc(C(F)(F)F)cc2)nc2cc(Oc3ccnc(-c4ncc(C(F)(F)F)[nH]4)c3)ccc21
veliparib, 1.4 µM: C[C@]1(c2nc3c(C(N)=O)cccc3[nH]2)CCCN1
indole-3-carbinol, 0.8 µM: OCc1c[nH]c2ccccc12
dorsomorphin, 0.4 µM: c1cc(-c2cnn3cc(-c4ccc(OCCN5CCCCC5)cc4)cnc23)ccn1

Results for NVP-TAE684 + veliparib are MEL-HO: 99.3; G-361: 94.2; A101D: 93.3; COLO 829: 93.6; A375: 77.4.
Results for GW2580 + OSU-03012 are MEL-HO: 80.7; G-361: 110; COLO 829: 82.7.
Results for OSI-906 + tanespimycin are MEL-HO: 82.5; G-361: 87.3; A101D: 96.8; COLO 829: 86.0; A375: 61.5.
Results for JZL184 + tozasertib are MEL-HO: 101; G-361: 92.0; A101D: 89.8; COLO 829: 102.
Results for indole-3-carbinol + ENMD-2076 are MEL-HO: 103; G-361: 108; A101D: 109; COLO 829: 108; A375: 92.5.
Results for CHIR-265 + NVP-TAE684 are MEL-HO: 71.4; G-361: 65.1; A101D: 61.9; COLO 829: 93.8; A375: 50.8.
Results for GW2580 + ENMD-2076 are MEL-HO: 94.2; G-361: 96.6; A101D: 101; COLO 829: 85.5.
Results for GW0742 + JZL184 are MEL-HO: 128; G-361: 89.8; A101D: 99.9; COLO 829: 120; A375: 103.
Results for BMS-536924 + dorsomorphin are MEL-HO: 94.9; G-361: 90.2; A101D: 106; COLO 829: 123; A375: 106.
Results for OSU-03012 + NVP-TAE684 are MEL-HO: 108; G-361: 102; A101D: 102; COLO 829: 82.3; A375: 12.6.
Results for CP-690550 + dorsomorphin are MEL-HO: 93.7; G-361: 104; A101D: 118; COLO 829: 117; A375: 114.
Results for GW2580 + cediranib are MEL-HO: 90.4; G-361: 86.3; A101D: 108; COLO 829: 85.3; A375: 80.3.
Results for NVP-TAE684 + cediranib are MEL-HO: 102; G-361: 108; A101D: 99.8; COLO 829: 99.7; A375: 81.9.
Results for bortezomib + tanespimycin are MEL-HO: 80.1; G-361: 4.1; A101D: 21.2; COLO 829: 68.6; A375: 81.7.
Results for GW0742 + PF-04217903 are MEL-HO: 97.9; G-361: 113; A101D: 111; COLO 829: 102; A375: 99.8.
Results for bexarotene + tozasertib are MEL-HO: 99.3; G-361: 85.3; A101D: 91.1; COLO 829: 102; A375: 98.9.
Results for veliparib + bexarotene are MEL-HO: 83.7; G-361: 70.5; A101D: 99.8; COLO 829: 84.3; A375: 73.6.
Results for BMS-536924 + PD173074 are MEL-HO: 76.8; G-361: 88.9; A101D: 101; COLO 829: 132; A375: 86.3.

Repeated from the top, 2 entries:

| Combination | MEL-HO | G-361 | A101D | COLO 829 | A375 |
|---|---|---|---|---|---|
| NVP-TAE684 + veliparib | 99.3 | 94.2 | 93.3 | 93.6 | 77.4 |
| GW2580 + OSU-03012 | 80.7 | 110 | - | 82.7 | - |

Data from the primary screen of doi:10.1371/journal.pone.0140310, rounded.